Measurements from the supplement of paper PMC6445147.
Single values of this data set are uncertain.

B1: human tRNA-Pro; a variant is named by its letters at N, in order (parent)
chain: GGCTCGTTGGTCTAGNGGTATGATTCTCGCTTAGGGTGCGAGAGGTCCCGGGTTCNNATCCCGGACGAGCCC

What was measured:
[1] = variants of: B1; assay: tRNA Pol-III promoter activity, log2 (circRNA frequency / plasmid DNA frequency) (log2 ratio); higher = stronger promoter activity; details: HEK293T; construct: no Pol-II promoter ((-)CMV library)
[2] = variants of: B1; assay: tRNA 3' processing efficiency (processed reads / all reads, maximum-likelihood estimate) (fraction); higher = more efficient 3' processing; details: HEK293T; construct: no Pol-II promoter ((-)CMV library)
[3] = variants of: B1; assay: tRNA 5' processing efficiency (processed reads / all reads, maximum-likelihood estimate) (fraction); higher = more efficient 5' processing; details: HEK293T; construct: CMV Pol-II promoter ((+)CMV library, decapped)

| Variant | tRNA Pol-III promoter activity (log2) [1] | tRNA 3' processing efficiency [2] | tRNA 5' processing efficiency [3] |
| --- | --- | --- | --- |
| GAA G17A T53A | 0.606 | 0.43 | – |
| GAA G9A A58T T59C | 4.52 | 0.57 | – |
| GTA A14G G17T | 5.08 | 0.18 | – |
| GGA | -1.24 | 0.45 | 0.27 |
| GAA T53A A58T T59G | 5.26 | 0.5 | – |
| GAA G15C T19A A20T | 3.44 | 0.2 | – |
| GAA G18A T19C T59C | 4.71 | 0.17 | – |
| GAG G15A T59C | 5.81 | 0.08 | – |
| GAA A14T A20G A58C | 3.17 | 0.56 | – |
| GGC A14C G18A | 6.75 | 0.14 | – |
| TAA T8C T53A | 6.91 | 0.64 | – |
| GAA G17C C55T | -1.03 | 0.22 | – |
| GAA G17C A20C | 0.227 | 0.25 | – |
| GAG T8A T19G A58G | 6.36 | 0.4 | – |
| GAA G15C T19A T59A | 3.62 | 0.5 | – |
| TAC G15A | 3.5 | 0.41 | – |
| GAA G9A T19A C55G | 3.16 | 0.14 | – |
| CAA C55T A58G | 1.87 | 0.5 | – |
| GAA A14C A20T | 4.06 | 0.29 | – |
| GAA A14G A20G C55G | 3.36 | 0.25 | – |
| GAA G15C A58G T59A | 4.3 | 0.11 | – |
| GCA T19A T59C | 5.97 | 0.13 | – |
| GAA A14T T19C T59G | 6.25 | 0.1 | – |

| Variant | tRNA Pol-III promoter activity (log2) [1] | tRNA 3' processing efficiency [2] | tRNA 5' processing efficiency [3] |
| --- | --- | --- | --- |
| GTA T53A T59C | 3.93 | 0.14 | – |
| GAA G18T A58C | -0.145 | 0.43 | 0.18 |
| TTA T59G | 4.25 | 0.35 | – |
| CAA G9A C55T | 4.51 | 0.33 | – |
| GAG G17C G18A | 3.03 | 0.25 | – |
| GGT G18A | 3.49 | 0.18 | – |
| GGA A58G | 0.0251 | 0.23 | – |
| GAA A14G G18A A20T A58G | 6.93 | 0.5 | – |
| CAA G18A T19G T59G | 7.03 | 0.25 | – |
| GAC T19A A58G | 3.51 | 0.17 | – |
| ATA T53G | 3.25 | 0.22 | – |
| TAA A14C A58G | 3.07 | 0.67 | – |
| CAC T59A | 5.36 | 0.2 | – |
| ACA C55T | 4.26 | 0.8 | – |
| TAG | 3.1 | 0.4 | – |
| GAG G18T | 1.26 | 0.51 | – |
| CAT T59G | 3.49 | 0.2 | – |
| CAA A14C T19G | 5.45 | 0.13 | – |
| AAA A58C | 3.74 | 0.97 | 0.6 |
| AAA T53G | 0.588 | 0.38 | – |
| GCA G9A T19C | 5.07 | 0.64 | – |
| CGA T54A | 4.19 | 0.17 | – |
| GCA A14T C55T | 4.28 | 0.16 | – |

| Variant | tRNA Pol-III promoter activity (log2) [1] | tRNA 3' processing efficiency [2] | tRNA 5' processing efficiency [3] |
| --- | --- | --- | --- |
| GAA T19A T53A T59G | 4.45 | 0.13 | – |
| CGT A58T | 5.26 | 0.14 | – |
| AGA T8C A58C | 3.93 | 0.25 | – |
| GTA G17C | 1.42 | 0.41 | – |
| GGA G15C T53A | 6.36 | 0.4 | – |
| GTT T19G | 4.47 | 0.09 | – |
| GAT A14G | 3.7 | 0.27 | 0.19 |
| CGA T19G T53A | 5.45 | 0.25 | – |
| GCA C55T | -0.207 | 0.54 | 0.33 |
| GAA A14G G18T | 0.379 | 0.5 | – |
| TAA G15A T59A | 4.43 | 0.57 | – |
| GAA A14G A58C T59C | 4.69 | 0.35 | – |
| GGA C55G | 1.21 | 0.19 | – |
| GAA A14T A58T T59G | 6.02 | 0.5 | – |
| GAT T8C | 3.17 | 0.35 | 0.13 |
| AAG A14T | 4 | 0.2 | – |
| CAG T19C A20T | 7.51 | 0.33 | – |
| AAT T19G | 4 | 0.15 | – |
| TAA G15C T19G | 3.28 | 0.18 | – |
| GAA A14G G18C T19C | 4.93 | 0.25 | – |
| GGA A20C | -0.0318 | 0.75 | – |
| GGA A58C | -0.574 | 0.5 | – |
| AAA A20G T59C | 2.93 | 0.25 | – |

| Variant | tRNA Pol-III promoter activity (log2) [1] | tRNA 3' processing efficiency [2] | tRNA 5' processing efficiency [3] |
| --- | --- | --- | --- |
| ATA G9T A58G | 6.36 | 0.2 | – |
| GAC G9A G17T | 6.93 | 0.13 | – |
| GAA A14G A20T A58C | 2.8 | 0.2 | – |
| GAC A58C T59C | 6.2 | 0.11 | – |
| GAG A14C A58G | 3.79 | 0.38 | – |
| CAA T8C T53A | 7.39 | 0.36 | – |
| GAG G17C | 0.548 | 0.42 | 0.33 |
| GTA G15A G18A A58T | 5.39 | 0.18 | – |
| GAT T19G A20G | 3.74 | 0.57 | – |
| TCA | 2.8 | 0.38 | – |
| GAT G15C T19A | 3.35 | 0.39 | – |
| TAA A20G T54A | 3.05 | 0.5 | – |
| GAT G15C G18T A20G | 3.61 | 0.5 | – |
| GAA T19G C55T A58T | 2.03 | 0.25 | – |
| GCA T8G A58T | 2.68 | 0.29 | – |
| TAC G15T | 2.69 | 0.13 | 0.25 |
| GTA G18A A20T | 6.26 | 0.6 | – |
| TAC A14T T59A | 3.93 | 0.44 | – |
| GAA A14G A20T T59C | 4.62 | 0.5 | – |
| GTA A14T A20T T59C | 5.51 | 0.45 | – |
| CAG A14C | 3.79 | 0.25 | – |
| CAA G15C A58T | 2.19 | 0.4 | – |
| TAA A58T | 0.701 | 0.31 | – |

| Variant | tRNA Pol-III promoter activity (log2) [1] | tRNA 3' processing efficiency [2] | tRNA 5' processing efficiency [3] |
| --- | --- | --- | --- |
| GTA T8C A14T | 4.53 | 0.2 | – |
| GGA T8G G15C T59A | 3.68 | 0.4 | – |
| GAT G9T A14T | 2.56 | 0.4 | – |
| GAC G18T | -0.746 | 0.38 | – |
| GAA G15A G17C T54A | 3.94 | 0.4 | – |
| GAT A14T G15T | 5.16 | 0.57 | – |
| GAA G15C C55T | -0.394 | 0.4 | – |
| GGC T13A | 8.03 | 0.41 | – |
| GAA A14C G18A A20G | 3.93 | 0.29 | – |
| GAA T53A A58G T59G | 5.51 | 0.22 | – |
| GAG T53A | -0.152 | 0.4 | – |
| GAA T8C G9A T19A T54A | 5.26 | 0.2 | – |
| CAA T54A A58C | 4.75 | 0.29 | – |
| AAT A20C | 3.09 | 0.42 | – |
| GAT T8C T59G | 2.02 | 0.25 | – |
| GAA G18T T59G | 0.942 | 0.33 | – |
| GAG T19C A58T | 4.36 | 0.5 | – |
| CAG T53C | 5.67 | 0.65 | – |
| AAA G18C T54A | 2.44 | 0.5 | – |
| ATA A58C | 4.49 | 0.48 | – |
| GAG T8C A14T | 4.03 | 0.15 | – |

Individual results from above.
AAA G18C T54A | tRNA 3' processing efficiency [2]: 0.5
GAT A14T G15T | tRNA Pol-III promoter activity (log2) [1]: 5.16
